The other results are listed elsewhere or left out. These are further read-outs of the screen, such as a control signal, another cell line or another target. No call is given for them. Compounds called inactive in the main read-out are mostly missing here. Words in brackets tell the shape of the fitted curve; partial curves, single points and poor fits give uncertain potencies. *1 amine or outer side, *2 acyl side, *3 side chain or, on linkers, in order; H or OH if unused. Where a SMILES comes first, the peptide text is derived from it. Bridges are numbered along the chain shown (N, C = ends). [ ]: non-standard residue; d: D form. ξ: configuration not given here. hSer(Ph(2-I,4-NO2,6-CO)) = O=C([C@H](CCOc1c(I)cc([N+](=O)[O-])cc1C(=O)[*:3])N[*:1])[*:2]; ξD = NC(CC(=O)O)C(=O)O

In PubChem BioAssay AID2685 (National Center for Advancing Translational Sciences (NCATS), 2010) one finds cell number change and AC50 data, which are given here for 33 compounds.

This test can be described thus: qHTS Assay for Lipid Storage Modulators in Drosophila S3 Cells.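 For cell number change: cells counted by Cell Tracker Red CMTPX staining in the red channel.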 Conditions: BODIPY lipid droplet fluorescence, 18-24 h; for cell number change: measured here: cell count max response, cells fed with added oleic acid. A digest of the protocol: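 Drosophila S3 cells loaded with oleic acid (400 uM, as added) and compounds at several concentrations; lipid droplets imaged by 488-nm laser-scanning cytometry, 500–530 nm intensity and object ratio to cell channel. Percent activity normalized to 20 uM Triacsin C.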
In general terms: Quantitative high-throughput screening tests each substance at several concentrations.

[1] abbreviates: measured here: lipid fluorescence (Fed channel) AC50, cells fed with added oleic acid.
[2] abbreviates: measured here: cell number channel AC50, cells fed with added oleic acid.

On to `COc1cccc(C(=O)NC2CCN(CC(=O)Nc3nccs3)CC2)c1`, for which the cell number change is 16.9%. The concentration at half-maximal activity (AC50) (as a rule, the concentration at which the activity in the assay is half-maximal) under setting [1] is 4.11 µM [rising, partial curve, poor fit].
On to `Cc1cc(C)n(CCCNC(=O)c2ccc3c(c2)NC(=O)CS3)n1`, for which the AC50 under setting [1] is 1.46 µM [rising, partial curve].
For the compound `O=C(O)C1OC(C(=O)O)C2C1C(F)(F)C2(F)F` (configuration not stated), the cell number change was -27.3%. Moreover, the AC50 under setting [1] was 3.66 µM [falling, full curve].
Regarding `COc1ccc(-c2nc(CN3CCN(C(=O)c4ccco4)CC3)c(C)o2)c(F)c1`, the cell number change stood at 27.6%. Further, the AC50 under setting [1] is 3.66 µM [rising, partial curve, poor fit].
Consider `O=C(Cc1cccc(C(F)(F)F)c1)N1CCCC1`, for which the cell number change was -3.81%. Moreover, the AC50 under setting [1] was 29.1 µM [rising, single point].
As to `O=C1c2cc(O)c(O)cc2S(=O)(=O)C1c1ccccc1` (configuration not stated), the cell number change came out at 20%. For the same compound, the AC50 under setting [1] was 6.51 µM [rising, single point].
As to `CC(C)NC(=O)c1cc2c(-c3ccc(Cl)cc3)nn(C)c2s1`, the cell number change is 23.7%. The AC50 under setting [2] is 0.184 µM [rising, full curve, poor fit].
As to `CN(C)c1ccc([C@@H]2[C@@H]([N+](=O)[O-])[C@H]3C=Cc4ccccc4N3[C@H]2C(=O)c2ccc(Cl)cc2)cc1`, the cell number change is -36.2%. The AC50 under setting [2] is 18.4 µM [falling, single point]. Also, the AC50 under setting [1] was 11.6 µM [falling, partial curve].
Turning to `NS(=O)(=O)c1ccc(CNC(=O)/C=C/c2cccc([N+](=O)[O-])c2)cc1`, the cell number change came out at 15.4%. The AC50 under setting [1] is 6.51 µM [rising, single point].
Consider `c1ccc(-n2ncc3c(NCCN4CCOCC4)ncnc32)cc1`, for which the cell number change was -19.9%. For the same compound, the AC50 under setting [2] was 7.31 µM [falling, partial curve, poor fit]. The AC50 under setting [1] was 0.461 µM [falling, full curve].
On to `CCCCN(CC)C(=O)Cn1cnc2ccc(S(=O)(=O)N3CCC(C)CC3)cc2c1=O`, for which the cell number change was 11.7%. Also, the AC50 under setting [1] is 0.103 µM [falling, single point].
Turning to `COc1cc(NC(=O)c2ccc(-c3cccc([N+](=O)[O-])c3)o2)ccc1NC(=O)C(C)C`, the cell number change was -7.97%. Besides, the AC50 under setting [2] was 3.66 µM [falling, single point]. The AC50 under setting [1] is 1.84 µM [falling, full curve].
As to `CCC(CC)C(=O)c1c[nH]c(C(=O)NCc2ccccc2OC)c1`, the cell number change is -43.1%. Moreover, under setting [2], the AC50 is 29.1 µM [falling, single point]. The AC50 under setting [1] was 29.1 µM [falling, single point].
Turning to `COc1ccc(S(=O)(=O)N2CCN(C3Cc4ccccc4C3)CC2)cc1`, the cell number change turned out to be 17.1%.
For the compound `CCOc1c(Br)cc(C(=O)OCC(=O)N2CCc3ccccc3C2)cc1OC`, the cell number change was 5.14%. In addition, the half-maximal activity concentration (AC50) under setting [1] is 6.51 µM [rising, partial curve, poor fit].
With `Cc1cccc(C(=O)Nc2ccccc2C(=O)NCc2ccco2)c1`, the cell number change turned out to be 46.6%. The AC50 under setting [1] is 0.116 µM [rising, full curve, poor fit].
In the case of `CCOc1ccc(/C=C/c2[nH]c(=O)[nH]c(=O)c2[N+](=O)[O-])cc1`, the cell number change was 12.6%. Besides, the AC50 under setting [1] was 20.6 µM [rising, single point].
In the case of `C[C@@H]1NC(=O)c2cc([N+](=O)[O-])cc(I)c2OCC[C@@H](C(=O)NC(CC(=O)O)C(N)=O)NC(=O)[C@H](CC(N)=O)NC1=O` (some centres not stated) (AN[hSer(Ph(2-I,4-NO2,6-CO))][ξD]-NH2; lactam N-3), the cell number change came out at 21.1%. Under setting [2], the AC50 was 0.184 µM [rising, full curve, poor fit]. Besides, under setting [1], the AC50 is 0.291 µM [rising, full curve].
As to `CCn1cc(CCCC(=O)NCc2cccnc2)c2ccccc21`, the cell number change is -32.6%. The AC50 under setting [2] was 0.0731 µM [falling, full curve, poor fit].
Consider `COc1ccc(C(=O)Nc2ccc(N3CCN(C)CC3)cc2)cc1OC`, for which the cell number change worked out at 28.1%. Also, under setting [1], the AC50 is 29.1 µM [rising, single point].
Regarding `COc1ccc(C(=O)Nc2ccc(S(=O)(=O)N3CCCCC3C)cc2)c(OC)c1OC` (configuration not stated), the cell number change is -39.7%. Further, the AC50 under setting [2] was 2.59 µM [falling, full curve]. The AC50 under setting [1] is 0.731 µM [falling, full curve].
Consider `COc1ccccc1N(C(=O)c1csnn1)C(C(=O)NC1CCCC1)c1ccccc1` (configuration not stated), for which the cell number change was -7.26%. Besides, the AC50 under setting [1] is 0.103 µM [falling, full curve, poor fit].
As to `COc1cc([N+](=O)[O-])ccc1NC(=O)CCCOc1ccccc1`, the cell number change came out at 141%.
With `Cc1cc(C)cc(N2C(=O)CN(Cc3sccc3C)C2=S)c1`, the cell number change is -24.9%. For the same compound, the AC50 under setting [2] was 0.146 µM [falling, full curve, poor fit]. For the same compound, under setting [1], the AC50 is 0.184 µM [falling, full curve, poor fit].
Take `O=C(CN1C(=O)/C(=C/c2ccc(F)cc2)SC1=S)NC1C=CS(=O)(=O)C1` (configuration not stated): the cell number change is -32.3%. The AC50 under setting [2] is 18.4 µM [falling, partial curve, poor fit]. Besides, the AC50 under setting [1] was 0.731 µM [falling, single point].
`CCOC(=O)c1nnc2c(Br)c(-c3ccccc3)nn2c1C`: the cell number change was -32.6%. The AC50 under setting [2] was 18.4 µM [falling, partial curve, poor fit]. Further, under setting [1], the AC50 was 32.6 µM [falling, single point].
With `Cc1cccc(CC(=O)NCCN2CCCCC2)c1`, the cell number change was -3.3%. In addition, the AC50 under setting [1] is 4.61 µM [rising, single point].
With `CC(=O)Oc1ccc(Cl)cc1/C=C/c1cc(OC(C)=O)c2ccccc2n1`, the AC50 is, setting by setting: under setting [2], 1.64 µM [rising, partial curve]; under setting [1], 2.91 µM [rising, partial curve].
Turning to `O=C(CCS(=O)(=O)c1ccc(Br)s1)NC1CCCC1`, under setting [1], the AC50 was 6.51 µM [rising, single point].
Take `CCCCn1c(N)c(N(Cc2ccccc2OC)C(=O)CN2C(=O)NC3(CCCC3)C2=O)c(=O)[nH]c1=O`: the cell number change was found to be 2.04%. Besides, the AC50 under setting [1] was 29.1 µM [rising, single point].
`Cn1c(=O)c2c(nc(NCCCO)n2Cc2cccc(C(F)(F)F)c2)n(C)c1=O`: the cell number change is -61.3%. The AC50 under setting [2] is 8.2 µM [falling, partial curve]. In addition, the AC50 under setting [1] is 29.1 µM [falling, single point].
`Cc1ccc(-n2ncc3c(Nc4c(C)n(C)n(-c5ccccc5)c4=O)ncnc32)c(C)c1`: the cell number change amounted to 7.05%. Moreover, the AC50 under setting [1] is 0.651 µM [rising, single point].
On to `CCC(=C/c1sc2ccc3ccccc3c2[n+]1C)/C=C1\Sc2ccc3ccccc3c2N1C`, for which the cell number change was -59.1%. Under setting [2], the AC50 is 2.31 µM [falling, full curve].
